{"source": "PubChem BioAssay AID652272 (Drosophila RNAi Screening Center, 2013)", "test": "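Genome-wide knock-down search for components of Hedgehog signalling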 (primary screen)", "cell system": "Drosophila clone 8 (Cl8) cells", "reagents": "long dsRNA against Drosophila genes", "measurement": "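Plate reader light from a firefly reporter under a ptc promoter fragment that responds to Hedgehog, with Renilla light as transfection reference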", "direction": "firefly Hh reporter signal: higher = more ptc reporter light; Renilla reference signal: higher = more Renilla control light", "rule for the call": "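Hit when the z-score averaged over two replicates is under -2 or over +3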", "meaning of the calls": "active = hit: reporter lowered or raised; inactive = not a hit", "note": "In all, the deposit lists about 21,000 reagents; this is an unselected part of those that have a named target and a result. Of all reagents, 503 (2.4%) got an active call. 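Raw plate light values, not normalised; calls rest on replicate z-scores that were not deposited; hits include reporter decreases as well as increases.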 Names joined by + are all predicted targets of the reagent. The record does not give: the amount of reagent, the time to read-out."}
{"target": "ltl (larval translucida)", "dsRNA": "DRSC10206", "firefly Hh reporter signal, replicate 1": 59963, "firefly Hh reporter signal, replicate 2": 40873, "Renilla reference signal, replicate 1": 6377, "Renilla reference signal, replicate 2": 3281, "Outcome": "inactive"}
{"target": "ltl (larval translucida)", "dsRNA": "DRSC10870", "firefly Hh reporter signal, replicate 1": 47364, "firefly Hh reporter signal, replicate 2": 34333, "Renilla reference signal, replicate 1": 6195, "Renilla reference signal, replicate 2": 2368, "Outcome": "inactive"}
{"target": "Marcal1", "dsRNA": "DRSC02718", "firefly Hh reporter signal, replicate 1": 1.15e5, "firefly Hh reporter signal, replicate 2": 37045, "Renilla reference signal, replicate 1": 3040, "Renilla reference signal, replicate 2": 3921, "Outcome": "inactive"}
{"target": "Ir21a + asRNA:CR43609", "dsRNA": "DRSC00528", "firefly Hh reporter signal, replicate 1": 1.03e5, "firefly Hh reporter signal, replicate 2": 68162, "Renilla reference signal, replicate 1": 2484, "Renilla reference signal, replicate 2": 1478, "Outcome": "inactive"}
{"target": "CG11854", "dsRNA": "DRSC14409", "firefly Hh reporter signal, replicate 1": 4.71e5, "firefly Hh reporter signal, replicate 2": 99360, "Renilla reference signal, replicate 1": 25116, "Renilla reference signal, replicate 2": 2502, "Outcome": "inactive"}
{"target": "Pss (Phosphatidylserine synthase)", "dsRNA": "DRSC11757", "firefly Hh reporter signal, replicate 1": 1.26e5, "firefly Hh reporter signal, replicate 2": 78488, "Renilla reference signal, replicate 1": 4584, "Renilla reference signal, replicate 2": 2717, "Outcome": "inactive"}
{"target": "Rbf (Retinoblastoma-family protein)", "dsRNA": "DRSC18704", "firefly Hh reporter signal, replicate 1": 77488, "firefly Hh reporter signal, replicate 2": 1.02e5, "Renilla reference signal, replicate 1": 1858, "Renilla reference signal, replicate 2": 3456, "Outcome": "inactive"}
{"target": "CG5968", "dsRNA": "DRSC02916", "firefly Hh reporter signal, replicate 1": 1.29e5, "firefly Hh reporter signal, replicate 2": 56722, "Renilla reference signal, replicate 1": 3360, "Renilla reference signal, replicate 2": 4513, "Outcome": "inactive"}
{"target": "CSN8 (COP9 signalosome subunit 8)", "dsRNA": "DRSC02257", "firefly Hh reporter signal, replicate 1": 93748, "firefly Hh reporter signal, replicate 2": 1.82e5, "Renilla reference signal, replicate 1": 4024, "Renilla reference signal, replicate 2": 5702, "Outcome": "inactive"}
{"target": "CLIP-190 (Cytoplasmic linker protein 190)", "dsRNA": "DRSC03283", "firefly Hh reporter signal, replicate 1": 78192, "firefly Hh reporter signal, replicate 2": 55760, "Renilla reference signal, replicate 1": 3286, "Renilla reference signal, replicate 2": 1629, "Outcome": "inactive"}
{"target": "CG14005", "dsRNA": "DRSC02337", "firefly Hh reporter signal, replicate 1": 1.25e5, "firefly Hh reporter signal, replicate 2": 48882, "Renilla reference signal, replicate 1": 4300, "Renilla reference signal, replicate 2": 2052, "Outcome": "inactive"}
{"target": "CG11309", "dsRNA": "DRSC11650", "firefly Hh reporter signal, replicate 1": 1.03e5, "firefly Hh reporter signal, replicate 2": 65960, "Renilla reference signal, replicate 1": 3270, "Renilla reference signal, replicate 2": 1639, "Outcome": "inactive"}
{"target": "Nsun5 (Nop2/Sun-like domain containing protein 5)", "dsRNA": "DRSC15835", "firefly Hh reporter signal, replicate 1": 99984, "firefly Hh reporter signal, replicate 2": 76761, "Renilla reference signal, replicate 1": 4219, "Renilla reference signal, replicate 2": 3008, "Outcome": "inactive"}
{"target": "Map205 (Microtubule-associated protein 205)", "dsRNA": "DRSC16732", "firefly Hh reporter signal, replicate 1": 28978, "firefly Hh reporter signal, replicate 2": 33568, "Renilla reference signal, replicate 1": 1101, "Renilla reference signal, replicate 2": 1596, "Outcome": "inactive"}
